# Article PMC12745349
# Protein sequences, listed by entry. Tags and fused reporters are not part of them.
# UniProt P19474: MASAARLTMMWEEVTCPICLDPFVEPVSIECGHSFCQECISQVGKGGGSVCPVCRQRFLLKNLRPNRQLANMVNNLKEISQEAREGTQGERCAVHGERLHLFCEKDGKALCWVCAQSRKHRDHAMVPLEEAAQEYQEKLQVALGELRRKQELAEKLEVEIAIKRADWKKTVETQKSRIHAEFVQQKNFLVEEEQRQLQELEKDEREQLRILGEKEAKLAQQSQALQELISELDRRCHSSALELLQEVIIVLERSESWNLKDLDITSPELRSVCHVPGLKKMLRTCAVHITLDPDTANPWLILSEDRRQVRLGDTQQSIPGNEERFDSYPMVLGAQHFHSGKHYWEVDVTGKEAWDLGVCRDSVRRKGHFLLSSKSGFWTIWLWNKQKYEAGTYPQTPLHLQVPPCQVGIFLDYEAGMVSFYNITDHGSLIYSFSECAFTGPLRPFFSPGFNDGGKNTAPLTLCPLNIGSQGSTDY
# UniProt Q9HAU4: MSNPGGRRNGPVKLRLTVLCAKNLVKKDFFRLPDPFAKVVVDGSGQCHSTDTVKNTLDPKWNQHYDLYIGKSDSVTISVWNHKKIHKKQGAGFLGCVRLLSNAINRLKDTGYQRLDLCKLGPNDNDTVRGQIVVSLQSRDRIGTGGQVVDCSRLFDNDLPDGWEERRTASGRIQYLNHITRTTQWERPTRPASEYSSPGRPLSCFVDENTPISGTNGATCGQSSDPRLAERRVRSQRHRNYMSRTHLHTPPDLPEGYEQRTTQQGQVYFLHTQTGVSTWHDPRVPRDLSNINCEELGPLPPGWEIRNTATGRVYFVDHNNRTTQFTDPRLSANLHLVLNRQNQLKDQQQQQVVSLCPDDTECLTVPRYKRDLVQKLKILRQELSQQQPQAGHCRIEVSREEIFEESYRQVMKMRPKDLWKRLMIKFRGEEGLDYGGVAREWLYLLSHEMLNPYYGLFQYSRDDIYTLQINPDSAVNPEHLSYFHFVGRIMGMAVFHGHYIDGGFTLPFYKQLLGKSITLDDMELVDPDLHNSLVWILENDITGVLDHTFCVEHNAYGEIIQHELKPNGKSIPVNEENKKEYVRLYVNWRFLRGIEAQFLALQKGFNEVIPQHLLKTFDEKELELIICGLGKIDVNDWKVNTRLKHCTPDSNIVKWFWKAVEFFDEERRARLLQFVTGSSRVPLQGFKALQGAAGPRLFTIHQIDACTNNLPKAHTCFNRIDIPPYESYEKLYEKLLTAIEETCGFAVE
# No constants are given. Whether binding was seen depends on the method and setting. Binding seen in cells or lysates may run through a third protein. Some binding calls cover weakened binding; strength is not graded here.
# Molecular target: Tripartite Motif Containing 21 (TRIM21) (human (endogenous in human cardiac fibroblasts)) (UniProt P19474)
# Test: co-IP; endogenous proteins in human cardiac fibroblast lysates (RIPA buffer); primary antibody overnight at 4 °C, protein G Sepharose beads, PBS washes, immunoblot; also after TGF-β treatment of the cells
substance,measurement,value
SMAD Specific E3 Ubiquitin Protein Ligase 2 (Smurf2) (from UniProt Q9HAU4 1-748),binding,binds
